Assay results as given in PubChem BioAssay AID1688 (National Center for Advancing Translational Sciences (NCATS), 2009).
The campaign covered roughly 220,000 compounds. About 2,400 (1.1%) were called active. The shares of active, inactive and inconclusive entries below differ from those in the screen. Calls come from the whole dose curve; as a rule, active = well fitted inhibition curve with a large enough effect; inconclusive = small, poorly fitted or top-dose-only effect, or effect the other way; inactive = no such curve, though single readings can be large or run the other way. Where the call is inconclusive, the potency comes from a doubtful curve fit. Numbered stars: 1 amine (or outer) side, 2 acyl side, 3 side chain; on linkers, the order of the positions; unused ones are H or OH. Bridge positions count the residues as written; N and C are the ends. Square brackets hold non-standard residues; d marks the D form. Peptide text beside a SMILES is read from it. I, II: the chains in the order shown. Actinocin(9to1) = Cc1c2oc3c(C)ccc(C(=O)[*:1])c3nc-2c(C(=O)[*:2])c(N)c1=O; NMeV = CN[C@H](C(=O)O)C(C)C; Sar = CNCC(=O)O

Test: qHTS Multiplex Assay to Identify Dual Action Probes in a Cell Model of Huntington: Aggregate Formation (GFP); note: nearly all actives have a fitted effect of over 60% in size
Conditions: PC12 HttQ103-GFP aggregates, Acumen cytometry, 40 h; activity change, negative = inhibition: at 46.1 µM (top of the series) unless noted
Method in brief: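 PC12/HTTQ103-GFP, ecdysone-inducible; teb 100 nM; cpd qHTS titration; GFP aggregates read on laser cytometer, Ex 488/Em 500-530 nm.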
% is set by controls: 0 for no effect and ±100 for the full control effect; potency is the fitted concentration of half-maximal effect.

| Structure (SMILES) | Potency | activity change, negative = inhibition |
| --- | --- | --- |
| CCCCN(CCCC)CC1OCc2ccccc2CO1 | inconclusive: 2.82 µM [inhibitor, single point] | – |
| O=C(Cn1cc(C(F)(F)F)ccc1=O)N1CCN(S(=O)(=O)c2ccc(Cl)cc2)CC1 | inconclusive: 35.5 µM [inhibitor, single point] | – |
| CC(=O)C1=C(C)NC2(O)c3ccccc3C(=O)C12O (stereo not drawn) | inconclusive: 8.91 µM [activator, partial curve, poor fit] | – |
| COc1ccc(/C=C/C(=O)O)cc1S(=O)(=O)NC1CCS(=O)(=O)C1 (stereo not drawn) | inconclusive: 12.6 µM [activator, partial curve, poor fit] | – |
| COc1ccc(-c2cc3nc(C)c(CCC(=O)N4CCN(c5ccccn5)CC4)c(C)n3n2)c(OC)c1 | – | inactive: -12.4% |
| N#Cc1c(NC(=O)C2CCCO2)sc2c1CCCCCC2 (stereo not drawn) | – | inactive: -1.72% |
| COc1ccc(C2NC(=O)C(C#N)=C(S)N2c2ccccc2)cc1OC (stereo not drawn) | – | inactive: 8.29% [at 9.22 µM] |
| CCOc1ccc(-n2c(-c3ccc(Br)cc3)c[n+]3c2CCCCC3)cc1 | inconclusive: 3.55 µM [inhibitor, full curve] | – |
| c1ccc2[nH]c(CSc3nc4ccccc4o3)nc2c1 | inconclusive: 35.5 µM [inhibitor, single point] | – |
| O=C(c1ccc(Cl)c(S(=O)(=O)N2CCCCCC2)c1)N1CCN(c2ccccn2)CC1 | inconclusive: 35.5 µM [inhibitor, single point] | – |
| Cc1cccc(N2CCN(C(=O)c3cnn4c(C(F)F)cc(-c5ccccc5)nc34)CC2)c1C | inconclusive: 22.4 µM [inhibitor, single point] | – |
| CC1(C)Cc2nc3oc4c(N(CCO)Cc5ccccc5)ncnc4c3cc2CO1 | inconclusive: 17.8 µM [inhibitor, partial curve] | – |
| N=C1/C(=C/c2cccs2)C(=O)N=C2SN=C(SCc3ccccc3)N12 | inconclusive: 35.5 µM [inhibitor, single point] | – |
| COc1cc(NC(=O)Cn2c(-c3cncs3)nc3ccccc32)cc(OC)c1OC | inconclusive: 7.08 µM [activator, partial curve] | – |
| COc1ccc(NC(=O)Cn2cc(S(=O)(=O)Cc3ccccc3)c3ccccc32)c(OC)c1 | inconclusive: 1 µM [inhibitor, full curve, poor fit] | – |
| CC(=O)C1=C(C)N(Cc2ccccc2)C(=O)N[C@H]1c1cccc(C(F)(F)F)c1 | inconclusive: 35.5 µM [inhibitor, partial curve] | – |
| COc1cccc(C(=O)/C=C/Nc2ccc(S(=O)(=O)Nc3cccc(C(C)=O)c3)cc2)c1 | inconclusive: 8.91 µM [inhibitor, partial curve] | – |
| CCOC(=O)c1[nH]c(C)c(C(=O)NC2CCCCCC2)c1C | – | inactive: 6.22% |
| O=C1NCCCC1C(=O)NCCN1C(=O)CCC1=O (stereo not drawn) | inconclusive: 3.16 µM [activator, partial curve] | – |
| CCOc1ccc(NS(=O)(=O)c2ccc(NS(=O)(=O)c3ccc(SC)cc3)cc2)cc1 | inconclusive: 11.2 µM [inhibitor, partial curve] | – |
| CC(C)(C)C(=O)Nc1cc(S(=O)(=O)N2CCCCC2)ccc1N1CCCCC1 | inconclusive: 35.5 µM [inhibitor, single point] | – |

Reprinted from the entries so far (4 entries):

| Structure (SMILES) | Potency | activity change, negative = inhibition |
| --- | --- | --- |
| c1ccc2[nH]c(CSc3nc4ccccc4o3)nc2c1 | inconclusive: 35.5 µM [inhibitor, single point] | – |
| O=C(c1ccc(Cl)c(S(=O)(=O)N2CCCCCC2)c1)N1CCN(c2ccccn2)CC1 | inconclusive: 35.5 µM [inhibitor, single point] | – |
| Cc1cccc(N2CCN(C(=O)c3cnn4c(C(F)F)cc(-c5ccccc5)nc34)CC2)c1C | inconclusive: 22.4 µM [inhibitor, single point] | – |
| CC1(C)Cc2nc3oc4c(N(CCO)Cc5ccccc5)ncnc4c3cc2CO1 | inconclusive: 17.8 µM [inhibitor, partial curve] | – |

(list continues)

| Structure (SMILES) | Potency | activity change, negative = inhibition |
| --- | --- | --- |
| Cc1ccc(-c2ccc(=O)n(CC(=O)N3CCN(c4cc(Cl)ccc4C)CC3)n2)cc1 | inconclusive: 15.8 µM [inhibitor, single point] | – |
| CCN(CC)C(=O)CSc1nc2ccccc2c(=O)[nH]1 | – | inactive: 27.3% |
| COc1cccc(-c2nn3c(-c4ccco4)nnc3s2)c1 | – | inactive: -5.59% |
| CN(Cc1ccccc1)c1oc(COc2ccccc2F)nc1C#N | inconclusive: 35.5 µM [inhibitor, single point] | – |
| O=C(Cn1nc2ccccc2n1)N/N=C/c1cc([N+](=O)[O-])ccc1O | inconclusive: 0.316 µM [activator, full curve, poor fit] | – |
| COC(=O)c1c(-c2ccc3ccccc3c2)csc1NC(=O)Cc1ccc(OC)c(OC)c1 | inconclusive: 17.8 µM [inhibitor, single point] | – |
| c1cncc(-c2nc(N3CCOCC3)c3ccccc3n2)c1 | active: 0.891 µM | – |
| COc1ccc(-c2nc(CCNC(=O)c3ccc(Br)o3)cs2)cc1 | inconclusive: 17.8 µM [inhibitor, single point] | – |
| c1ccc2[nH]c(CSc3nc4ccccc4s3)nc2c1 | inconclusive: 25.1 µM [inhibitor, single point] | – |
| CCOC(=O)C1=C(C)C(c2ccccc2OC)NC(=S)N1 (stereo not drawn) | – | inactive: 14.5% |
| COc1ccccc1-c1nc(-c2ccccc2)[nH]c(=O)c1C#N | inconclusive: 3.16 µM [activator, partial curve] | – |
| CCCCCCOc1ccc(-c2ccc(C#N)cn2)cc1 | inconclusive: 35.5 µM [inhibitor, single point] | – |
| COc1cc2nc(NC(=O)c3ccc(Cl)cc3)[nH]c(=O)c2cc1OC | inconclusive: 2.82 µM [activator, partial curve] | – |
| CCOC(=O)C1CCCN(C(=S)NC2CCCCC2)C1 (stereo not drawn) | inconclusive: 35.5 µM [activator, single point] | – |
| O=C(Nc1ccccc1)c1cc(S(=O)(=O)N2CCOCC2)cs1 | inconclusive: 11.2 µM [inhibitor, single point] | – |
| Cc1sc2nc3c(SC(C)C(=O)O)cc(C(=O)c4ccccc4O)cn3c(=O)c2c1C (stereo not drawn) | inconclusive: 35.5 µM [inhibitor, single point] | – |
| N#CCSc1nc(-c2ccccc2)cs1 | inconclusive: 1.26 µM [activator, partial curve] | – |
| COc1cc(C(=O)Nc2ccc(-c3nc4cc(C)ccc4o3)c(O)c2)cc(OC)c1OC | inconclusive: 35.5 µM [inhibitor, single point] | – |
| COc1ccc2cc3[n+](cc2c1OC)CCc1cc2c(cc1-3)OCO2 | inconclusive: 10 µM [inhibitor, partial curve] | – |
| CCCCOc1ccc(-c2cc(C(F)(F)F)c(C#N)c(SCC(=O)O)n2)cc1 | – | inactive: -3.11% |
| Cc1c(Cl)cccc1N/C(SCC(=O)N1CCCCCC1)=C(/C#N)c1nc2ccccc2s1 | inconclusive: 28.2 µM [inhibitor, single point] | – |

| Structure (SMILES) | Potency | activity change, negative = inhibition |
| --- | --- | --- |
| O=C(NC1(C(F)(F)F)OCCO1)c1ccc(F)cc1 | – | inactive: 10.4% |
| CCCCCCCCCCOCC(O)CN (stereo not drawn) | inconclusive: 35.5 µM [inhibitor, single point] | – |
| N#CC(c1ccccc1)c1ccc2c(C(F)(F)F)cc(C(F)(F)F)nc2n1 (stereo not drawn) | active: 22.4 µM | – |
| CC1C=CCC2C(=O)N(c3cc(Cl)ccc3O)C(=O)C12 (stereo not drawn) | inconclusive: 35.5 µM [inhibitor, single point] | – |
| CC(C)(C)C(=O)NCC12C=CC(O1)C1C(=O)N(c3ccccc3)C(=O)C12 (stereo not drawn) | inconclusive: 25.1 µM [inhibitor, single point] | – |
| O=C(N/N=C/c1ccco1)/C(=C/c1cccc([N+](=O)[O-])c1)NC(=O)c1ccccc1 | inconclusive: 1.26 µM [inhibitor, single point] | – |
| O=C1NC(=S)/C(=C\c2ccc(-c3ccccc3Cl)o2)S1 | inconclusive: 20 µM [inhibitor, partial curve, poor fit] | – |
| Cc1ccc(C(=O)C2COC(=O)C2)cc1 (stereo not drawn) | inconclusive: 20 µM [activator, single point] | – |
| CC1(C)Cc2c(C#N)c(N)sc(=S)c2CS1 | – | inactive: 5.05% |
| CCN(CC)S(=O)(=O)c1ccc(N2CCN(S(=O)(=O)c3ccc4c(c3)OCCO4)CC2)nc1 | – | inactive: 10.3% [at 1.84 µM] |
| Cc1ccc(OCCSc2ncnc3nc[nH]c23)cc1 | inconclusive: 11.2 µM [inhibitor, partial curve, poor fit] | – |
| COc1cc([N+](=O)[O-])c(N2CCOCC2)c([N+](=O)[O-])c1OC | inconclusive: 1.58 µM [activator, partial curve] | – |
| CCN1CCN(C(=O)CN(C)S(=O)(=O)c2cc(C)ccc2OC)CC1 | – | inactive: 12.4% [at 9.22 µM] |
| O=C(NCCNc1ccc([N+](=O)[O-])cc1C(F)(F)F)c1cccc(F)c1 | inconclusive: 35.5 µM [inhibitor, single point] | – |
| CC(C)CNC(=O)COC(=O)c1c2c(nc3ccccc13)/C(=C/c1cccs1)CC2 | active: 5.62 µM | – |
| Cc1ccc(Nc2c([N+](=O)[O-])c(=O)n(C)c3ccccc23)cc1C | – | inactive: 5.22% |
| Cc1c2oc3c(C)ccc(C(=O)N[C@@H]4C(=O)N[C@H](C(C)C)C(=O)N5CCC[C@H]5C(=O)N(C)CC(=O)N(C)[C@@H](C(C)C)C(=O)O[C@@H]4C)c3nc-2c(C(=O)N[C@@H]2C(=O)N[C@H](C(C)C)C(=O)N3CCC[C@H]3C(=O)N(C)CC(=O)N(C)[C@@H](C(C)C)C(=O)O[C@@H]2C)c(N)c1=O (I: T[dV]P[Sar][NMeV] / II: T[dV]P[Sar][NMeV]; ester I:1-I:C, II:1-II:C; linker I:N-II:N via Actinocin(9to1)) | active: 0.0316 µM | – |
| Cc1ccc(C(=O)CNc2ccc(Br)cc2)cc1 | inconclusive: 0.0891 µM [inhibitor, full curve, poor fit] | – |
| CCOC(=O)N1CCN(C(=O)/C(=C\c2cccs2)NC(=O)c2cccs2)CC1 | inconclusive: 1.78 µM [activator, partial curve] | – |
| Cc1ccc(NC2CC(=O)N(c3ccc(C)cc3)C2=O)cc1 (stereo not drawn) | – | inactive: 7.6% |
| COC(=O)[C@@H]1CC[C@H](C)[C@@H](c2ccc(C)cc2)N1C(=O)c1ccc(/C=N/O[C@@H](C)c2cn([C@H](CO)Cc3ccccc3)nn2)cc1 | inconclusive: 35.5 µM [inhibitor, single point] | – |
